# Measurements reported in US9975918B2 (Van Andel Research Institute, priority 2013, dated 2018).
# At least one structure is not confirmed: it was looked up by name or label, or the drawing left a doubt.
# Test system: GR Q642 mutations (Q642A, Q642F, Q642E, Q642K)
# Experiment: MMTV-Luc transactivation assay with the other Q642 mutations
# Assay type: cell-based
# Details: MF 1 nM, DEX 10 nM
compound,measurement,value
"C[C@@H]1C[C@H]2[C@@H]3CCC4=CC(=O)C=C[C@]4(C)[C@@]3(F)[C@@H](O)C[C@]2(C)[C@@]1(O)C(=O)CO [DEX, Dexamethasone]","transactivation activity at sub-saturated concentration, in words",loss of most of the activity
